Source: US20050048563A1, “Membrane molecule indicator compositions and methods” (Novasite Pharmaceuticals, Inc, priority 2000, published 2005)
At least one compound was matched to its structure with a doubt left. No end group written: not given here.

Legend:
[1] = tested on: bovine aortic endothelial cells; conditions: cited from earlier work
intracellular Ca^2+ = experiment: Intracellular Ca2+ recording with Yellow Cameleon 2.1 in N1E-115 cells; assay type: cell-based, mouse; conditions: n=6, mean±SEM
N1E-115 cells = experiment: Flash photolysis of caged IP3 with PLCδ1PH-GFP translocation and Ca2+ mobilization in N1E-115 cells; assay type: cell-based, mouse
3T3 cells = conditions: bombesin-stimulated 3T3 cells; cited from earlier work

| Molecule | time to significant PIP2 decreases [1] [s] | BK-induced peak Ca^2+ values (intracellular Ca^2+; PAO pretreated cells (5 μM)) [nM] | BK-induced peak Ca^2+ values (intracellular Ca^2+; control cells) [nM] | translocation response compared with IP3 (N1E-115 cells) | time of significant PIP2 decreases (3T3 cells) [min] |
| --- | --- | --- | --- | --- | --- |
| RPPGFSPFR [BK, bradykinin] | ≤ 10 | 845 ± 114 | 870 ± 130 | larger translocation response |  |
| CSCC[C@H](NC(=O)[C@H](CC(C)C)NC(=O)[C@H](Cc1cnc[nH]1)NC(=O)CNC(=O)[C@@H](NC(=O)[C@H](C)NC(=O)[C@H](Cc1c[nH]c2ccccc12)NC(=O)[C@H](CCC(N)=O)NC(=O)[C@H](CC(N)=O)NC(=O)CNC(=O)[C@H](CC(C)C)NC(=O)[C@H](CCCN=C(N)N)NC(=O)[C@H](CCC(N)=O)NC(=O)[C@@H]1CCC(=O)N1)C(C)C)C(N)=O [bombesin] |  |  |  |  | 1 |
